Experimental data reported in patent publication US20040023386A1, “Modulation of nitric oxide synthase by PKC” (Joslin Diabetes Center, Inc., a Massachusetts corporation, priority 2000, published 2004).
At least one compound was matched to its structure with a doubt left.

What was measured:
[1] = system: eNOS mRNA; test: eNOS mRNA level in BAECs (Northern blot); type: cell-based, bovine; details: for inhibition of insulin-induced eNOS mRNA expression: preincubation with wortmannin 100 nmol/L or LY294002 50 nmol/L before insulin 100 nmol/L
Method: (§1) Bovine aortic endothelial cells (BAECs) from passages 4 to 10 were isolated. Confluent cells were placed in DMEM containing 1% platelet-deprived horse serum (PDHS) for 24 hours before being studied and pretreated with the following inhibitors: phosphatidylinositol-3 (PI-3) kinase-selective inhibitors wortmannin (Sigma Chemical Co) and LY294002 (BIOMOL Research Laboratories), protein kinase C (PKC) activator phorbol-12-myristate-13-acetate (PMA) (Sigma Chemical Co), general PKC inhibitor GF109203X (GFX) (Calbiochem-Novabiochem Corp), and PKCβ isoform-selective inhibitor LY333531 (Lilly Inc). Cells were then stimulated with insulin (Sigma Chemical Co), recombinant insulin-like growth factor-1 (IGF-1) (Upstate Biotechnology), and LPC (Avanti Polar Lipid) or alpha-IR3 antibodies.
Total RNA from cultured BAECs, PKCβ1-overexpressed BAECs, and vascular stroma from the epididymal fat pads of Zucker rats were isolated according to the guanidinium thiocyanate-phenol-chloroform method with TRI Reagent (Molecular Research Center) and solution D containing 4 mol/L guanidinium thiocyanate, 25 mmol/L sodium citrate, pH 7.0, 0.5% sarcosyl, and 0.1 mol/L 2-mercaptoethanol. Total RNA (20 μg) was fractionated and hybridized to 650-bp cDNA fragments of rat eNOS (kindly provided by Dr Mark A. Perella and Arthur M. E. Lee, Harvard School of Public Health, Boston, Mass.), which were labeled with the use of a DNA labeling system (Multiprime; Amersham Corp). The quantification of eNOS mRNA levels was performed with a PhosphorImager (Molecular Dynamics) and normalized to 36B4 mRNA.

[2] = system: eNOS protein; test: Immunoblot analysis of eNOS protein in BAECs; type: cell-based, bovine; details: wortmannin 100 nmol/L or LY294002 50 nmol/L before insulin 100 nmol/L
Method: as §1
Cells were washed 3 times with ice-cold PBS, pH 7.4, lysed in 50 mmol/L Tris, pH 7.5, 2 mmol/L EDTA, 0.5 mmol/L EGTA, 2 mmol/L PMSF, 25 μg/mL leupeptin, 0.1 mg/mL aprotinin, 1 mmol/L dithiothreitol, 50 mmol/L NaF, and 1% Triton X-100 (Sigma Chemical Co); scraped from the dish; rotated for 1 hour at 4° C.; and centrifuged for 15 minutes at 14 000 g. Protein concentrations of the supernatant were measured according to the method of Bradford and separated with the use of 6% SDS-PAGE. […] Protein levels of eNOS were quantified with a PhosphorImager.

[3] = system: NOS activity; test: Assay of NOS activity in BAECs; type: cell-based, bovine; details: wortmannin 100 nmol/L
Method: The amount of NOS activity produced by BAECs was measured by using an NOS Detect assay kit (Transduction Laboratories) according to the manufacturer's instructions. Briefly, BAECs were harvested in PBS containing 1 mmol/L EDTA and centrifuged at 12 000 g. The pellets were lysed in homogenization buffer containing 25 mmol/L Tris, pH 7.4, 1 mmol/L EDTA, and 1 mmol/L EGTA and centrifuged at 12 000 g. Aliquots from the supernatant were used for the measurement of NOS activity through the conversion of [^3H]L-arginine to [^3H]L-citrulline. Data were normalized by the amount of protein and reaction time.

[4] = system: NO production; details: endothelial cells; cited from earlier work

Structure (SMILES)	inhibition of insulin-induced eNOS mRNA expression [1]	inhibition of insulin-stimulated eNOS protein increase [2]	eNOS mRNA expression, combination effect ([1]; LY333531 and insulin together)	basal levels of NOS activity [3]	effect on the acute effect of insulin on NO production [4]
O=c1cc(N2CCOCC2)oc2c(-c3ccccc3)cccc12 [LY294002]	completely inhibited	inhibited	–	–	–
CN(C)C[C@@H]1CCn2cc(c3ccccc32)C2=C(C(=O)NC2=O)c2cn(c3ccccc23)CCO1 [LY333531]	–	–	did not have a significant additive effect	–	–
COC[C@H]1OC(=O)c2coc3c2[C@@]1(C)C1=C(C3=O)[C@@H]2CCC(=O)[C@@]2(C)C[C@H]1OC(C)=O [wortmannin]	inhibited	completely inhibited	–	unchanged	inhibited
